Results are given in words; binding and its absence hold for the method and conditions named. Binding seen in cells or lysates may run through a third protein. Some entries that bind do so weakly or less than the wild type. Tags and fused reporters may be left off the sequences shown.

We go through one molecule from patent publication US20160289698A1.

The test deals with T1, HA-tagged ARR12 (Arabidopsis) (UniProt P62598).
T1 sequence (looked up): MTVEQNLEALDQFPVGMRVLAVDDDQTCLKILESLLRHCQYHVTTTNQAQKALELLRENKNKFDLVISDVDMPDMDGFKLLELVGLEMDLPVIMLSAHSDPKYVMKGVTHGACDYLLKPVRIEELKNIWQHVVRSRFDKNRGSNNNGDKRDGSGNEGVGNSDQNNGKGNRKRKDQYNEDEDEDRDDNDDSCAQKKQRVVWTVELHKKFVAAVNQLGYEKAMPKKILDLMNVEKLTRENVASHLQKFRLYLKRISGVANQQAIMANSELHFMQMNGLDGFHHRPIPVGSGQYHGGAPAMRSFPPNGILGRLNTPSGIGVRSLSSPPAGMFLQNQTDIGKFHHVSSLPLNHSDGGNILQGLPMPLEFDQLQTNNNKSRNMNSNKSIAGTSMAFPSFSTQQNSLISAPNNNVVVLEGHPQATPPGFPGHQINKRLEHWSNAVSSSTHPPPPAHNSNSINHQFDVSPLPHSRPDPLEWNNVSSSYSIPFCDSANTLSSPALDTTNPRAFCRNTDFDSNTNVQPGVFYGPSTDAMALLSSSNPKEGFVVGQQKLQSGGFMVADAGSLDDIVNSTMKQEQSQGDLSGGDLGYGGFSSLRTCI
Description: co-immunoprecipitation with anti-GFP antibody from co-transfected Arabidopsis protoplasts.

B1: OsKMD2-GFP (protein, not shown: large carriers; small tags and cut ends)
chain: MGYNELIPGLPEEVARECLIRVGFDQLPAVRRISRQWKAEVESPAYNRLRKAEGLARPALALVQARRELAEAGPAADKQSSAGGVPGNSYRMVLLDPAEGRWTPLPEVGGASGSLPLFCQVAAVDGGVEGRKRLVVVGGWDPETWAPTDSVLVYDFLTGAWRRGAAMPGPRRSFFACAAVGGKVFVAGGHDEEKNALRSALAYDPDADAWAALPDMAEERDEPRGLCVDGKFLVVGGYPTPAQGRFVGSAEWFDPATSTWSAVQEGFVDDGACPRTCSAAPEAGDRMYMLRDGHLVARHGAISSAPAAWRPVAPVPEDARTAAAVSVIPDGRVVVIGSDCHGGDQTVYTLREEAGKPASWARAPAPPEFSGHVQAACLLEI
Regarding B1, the binding result is listed as “binds”.
